From the supplement of paper PMC10849652
The other results are listed elsewhere or left out.

Protein sequences, listed by entry. Tags and fused reporters are not part of them. Lines headed by an entry give the natural chain unless they say otherwise; changes in a name come on top.
UniProt Q9Y548: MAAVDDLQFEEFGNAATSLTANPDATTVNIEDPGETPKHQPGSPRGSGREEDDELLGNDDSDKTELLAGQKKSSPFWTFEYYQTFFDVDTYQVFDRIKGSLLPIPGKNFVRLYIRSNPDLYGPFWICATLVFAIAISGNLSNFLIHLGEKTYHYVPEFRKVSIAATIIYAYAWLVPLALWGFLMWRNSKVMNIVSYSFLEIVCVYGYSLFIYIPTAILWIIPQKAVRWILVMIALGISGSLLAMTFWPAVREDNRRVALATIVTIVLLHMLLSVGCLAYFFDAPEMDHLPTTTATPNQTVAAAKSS
UniProt O95070: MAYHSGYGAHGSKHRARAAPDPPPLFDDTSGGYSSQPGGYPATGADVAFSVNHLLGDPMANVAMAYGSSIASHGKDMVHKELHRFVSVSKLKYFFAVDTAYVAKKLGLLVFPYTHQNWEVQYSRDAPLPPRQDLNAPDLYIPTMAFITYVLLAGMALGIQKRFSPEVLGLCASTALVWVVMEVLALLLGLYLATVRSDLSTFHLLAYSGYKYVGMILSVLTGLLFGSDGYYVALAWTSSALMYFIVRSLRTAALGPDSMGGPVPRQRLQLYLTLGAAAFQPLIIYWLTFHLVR
UniProt Q9NPG8: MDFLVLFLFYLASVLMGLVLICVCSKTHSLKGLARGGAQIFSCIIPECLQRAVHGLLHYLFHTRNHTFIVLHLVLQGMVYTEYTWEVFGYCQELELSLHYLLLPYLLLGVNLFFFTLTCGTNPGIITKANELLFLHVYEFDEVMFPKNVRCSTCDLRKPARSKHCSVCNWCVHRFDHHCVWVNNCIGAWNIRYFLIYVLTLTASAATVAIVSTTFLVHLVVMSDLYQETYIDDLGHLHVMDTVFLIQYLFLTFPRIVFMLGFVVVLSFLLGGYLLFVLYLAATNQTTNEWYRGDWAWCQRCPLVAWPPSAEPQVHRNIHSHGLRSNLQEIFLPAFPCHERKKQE
UniProt Q8N3Z6: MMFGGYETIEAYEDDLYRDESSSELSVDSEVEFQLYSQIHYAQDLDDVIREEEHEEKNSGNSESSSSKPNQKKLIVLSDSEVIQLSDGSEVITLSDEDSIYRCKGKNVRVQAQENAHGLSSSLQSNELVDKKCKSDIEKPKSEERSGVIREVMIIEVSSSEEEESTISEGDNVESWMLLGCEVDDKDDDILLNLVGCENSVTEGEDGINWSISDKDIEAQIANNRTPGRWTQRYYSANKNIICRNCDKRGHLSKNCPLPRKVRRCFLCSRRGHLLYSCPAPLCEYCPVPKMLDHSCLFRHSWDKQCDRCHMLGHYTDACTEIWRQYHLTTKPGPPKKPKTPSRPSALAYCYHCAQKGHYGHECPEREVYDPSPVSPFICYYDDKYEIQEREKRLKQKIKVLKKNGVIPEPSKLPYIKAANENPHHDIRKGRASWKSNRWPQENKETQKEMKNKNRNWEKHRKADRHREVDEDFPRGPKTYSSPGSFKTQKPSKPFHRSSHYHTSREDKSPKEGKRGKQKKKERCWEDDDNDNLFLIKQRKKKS
UniProt Q8TBF4: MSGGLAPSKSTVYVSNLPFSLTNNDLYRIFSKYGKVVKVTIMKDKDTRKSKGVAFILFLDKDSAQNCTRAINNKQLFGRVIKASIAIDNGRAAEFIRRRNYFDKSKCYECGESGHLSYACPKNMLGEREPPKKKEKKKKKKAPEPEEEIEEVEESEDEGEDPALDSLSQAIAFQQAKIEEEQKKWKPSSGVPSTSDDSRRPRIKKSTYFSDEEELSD
UniProt Q8IWR0: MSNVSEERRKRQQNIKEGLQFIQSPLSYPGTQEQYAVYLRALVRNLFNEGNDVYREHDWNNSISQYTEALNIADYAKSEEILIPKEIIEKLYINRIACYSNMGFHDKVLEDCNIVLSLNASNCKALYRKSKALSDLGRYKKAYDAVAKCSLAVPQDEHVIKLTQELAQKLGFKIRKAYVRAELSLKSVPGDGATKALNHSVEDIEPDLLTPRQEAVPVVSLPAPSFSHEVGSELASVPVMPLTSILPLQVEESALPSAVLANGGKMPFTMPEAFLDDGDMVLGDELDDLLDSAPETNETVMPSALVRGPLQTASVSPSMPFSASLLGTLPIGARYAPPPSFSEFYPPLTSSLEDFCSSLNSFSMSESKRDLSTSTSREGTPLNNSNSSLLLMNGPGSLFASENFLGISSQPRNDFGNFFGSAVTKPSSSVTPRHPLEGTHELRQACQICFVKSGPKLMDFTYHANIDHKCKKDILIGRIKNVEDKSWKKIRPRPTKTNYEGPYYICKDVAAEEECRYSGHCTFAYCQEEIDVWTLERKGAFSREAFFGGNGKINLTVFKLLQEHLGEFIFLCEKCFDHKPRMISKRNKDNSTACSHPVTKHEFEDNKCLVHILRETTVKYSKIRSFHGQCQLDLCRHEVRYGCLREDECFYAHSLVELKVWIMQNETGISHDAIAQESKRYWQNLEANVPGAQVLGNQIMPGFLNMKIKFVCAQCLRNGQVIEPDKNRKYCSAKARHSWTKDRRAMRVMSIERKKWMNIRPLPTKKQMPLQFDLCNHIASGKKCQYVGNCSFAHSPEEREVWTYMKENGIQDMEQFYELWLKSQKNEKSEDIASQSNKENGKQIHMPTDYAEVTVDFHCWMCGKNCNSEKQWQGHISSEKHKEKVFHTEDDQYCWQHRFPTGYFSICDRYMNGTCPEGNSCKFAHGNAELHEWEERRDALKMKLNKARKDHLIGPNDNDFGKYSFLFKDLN
UniProt Q8IUH5: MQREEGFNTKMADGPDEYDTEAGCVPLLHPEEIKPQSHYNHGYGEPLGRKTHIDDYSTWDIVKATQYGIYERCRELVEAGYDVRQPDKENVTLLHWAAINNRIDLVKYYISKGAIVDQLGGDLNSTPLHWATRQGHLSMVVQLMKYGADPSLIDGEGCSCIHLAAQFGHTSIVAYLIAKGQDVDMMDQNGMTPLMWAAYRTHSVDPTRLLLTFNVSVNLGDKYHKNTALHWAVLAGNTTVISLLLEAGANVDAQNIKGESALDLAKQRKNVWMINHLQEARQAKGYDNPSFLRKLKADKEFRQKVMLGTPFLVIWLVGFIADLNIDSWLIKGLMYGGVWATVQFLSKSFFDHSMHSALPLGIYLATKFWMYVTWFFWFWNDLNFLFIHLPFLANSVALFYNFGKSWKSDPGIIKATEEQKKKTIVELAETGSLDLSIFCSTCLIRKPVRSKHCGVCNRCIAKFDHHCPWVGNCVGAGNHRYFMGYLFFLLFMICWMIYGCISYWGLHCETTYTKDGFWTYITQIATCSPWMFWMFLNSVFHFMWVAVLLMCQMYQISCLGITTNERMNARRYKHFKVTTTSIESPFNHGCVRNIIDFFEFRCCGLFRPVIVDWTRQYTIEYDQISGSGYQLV
UniProt Q8N680: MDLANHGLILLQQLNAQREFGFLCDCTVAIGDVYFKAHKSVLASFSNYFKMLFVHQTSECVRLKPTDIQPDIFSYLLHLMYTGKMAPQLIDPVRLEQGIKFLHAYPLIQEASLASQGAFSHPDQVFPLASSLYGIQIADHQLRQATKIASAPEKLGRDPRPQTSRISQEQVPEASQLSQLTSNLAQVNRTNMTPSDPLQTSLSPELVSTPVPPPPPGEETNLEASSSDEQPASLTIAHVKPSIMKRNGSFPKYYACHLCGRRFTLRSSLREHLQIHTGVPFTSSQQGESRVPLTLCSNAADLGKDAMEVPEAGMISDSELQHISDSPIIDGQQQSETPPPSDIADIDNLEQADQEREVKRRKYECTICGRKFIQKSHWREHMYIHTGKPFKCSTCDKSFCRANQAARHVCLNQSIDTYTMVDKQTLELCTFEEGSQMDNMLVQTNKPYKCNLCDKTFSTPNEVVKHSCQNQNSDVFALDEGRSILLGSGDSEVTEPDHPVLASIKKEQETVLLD
UniProt Q9H5U6: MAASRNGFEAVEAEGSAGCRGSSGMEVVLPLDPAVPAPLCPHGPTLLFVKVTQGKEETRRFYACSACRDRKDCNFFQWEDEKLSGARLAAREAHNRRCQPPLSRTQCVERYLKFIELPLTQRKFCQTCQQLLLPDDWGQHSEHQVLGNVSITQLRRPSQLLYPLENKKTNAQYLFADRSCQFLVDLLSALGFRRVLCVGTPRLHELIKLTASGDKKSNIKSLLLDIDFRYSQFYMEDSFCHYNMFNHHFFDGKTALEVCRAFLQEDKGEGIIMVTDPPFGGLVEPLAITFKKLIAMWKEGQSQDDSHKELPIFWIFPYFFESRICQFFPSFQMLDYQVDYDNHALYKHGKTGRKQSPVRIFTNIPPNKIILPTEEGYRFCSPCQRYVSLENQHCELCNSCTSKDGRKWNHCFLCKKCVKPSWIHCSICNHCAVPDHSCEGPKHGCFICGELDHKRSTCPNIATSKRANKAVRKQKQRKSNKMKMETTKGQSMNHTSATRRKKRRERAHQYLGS
UniProt Q96DA0: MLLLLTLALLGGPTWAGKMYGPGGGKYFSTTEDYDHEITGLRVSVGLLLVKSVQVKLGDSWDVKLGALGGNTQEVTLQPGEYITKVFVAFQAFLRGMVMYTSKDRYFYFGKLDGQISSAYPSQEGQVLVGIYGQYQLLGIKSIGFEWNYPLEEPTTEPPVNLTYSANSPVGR
UniProt Q7Z7L7: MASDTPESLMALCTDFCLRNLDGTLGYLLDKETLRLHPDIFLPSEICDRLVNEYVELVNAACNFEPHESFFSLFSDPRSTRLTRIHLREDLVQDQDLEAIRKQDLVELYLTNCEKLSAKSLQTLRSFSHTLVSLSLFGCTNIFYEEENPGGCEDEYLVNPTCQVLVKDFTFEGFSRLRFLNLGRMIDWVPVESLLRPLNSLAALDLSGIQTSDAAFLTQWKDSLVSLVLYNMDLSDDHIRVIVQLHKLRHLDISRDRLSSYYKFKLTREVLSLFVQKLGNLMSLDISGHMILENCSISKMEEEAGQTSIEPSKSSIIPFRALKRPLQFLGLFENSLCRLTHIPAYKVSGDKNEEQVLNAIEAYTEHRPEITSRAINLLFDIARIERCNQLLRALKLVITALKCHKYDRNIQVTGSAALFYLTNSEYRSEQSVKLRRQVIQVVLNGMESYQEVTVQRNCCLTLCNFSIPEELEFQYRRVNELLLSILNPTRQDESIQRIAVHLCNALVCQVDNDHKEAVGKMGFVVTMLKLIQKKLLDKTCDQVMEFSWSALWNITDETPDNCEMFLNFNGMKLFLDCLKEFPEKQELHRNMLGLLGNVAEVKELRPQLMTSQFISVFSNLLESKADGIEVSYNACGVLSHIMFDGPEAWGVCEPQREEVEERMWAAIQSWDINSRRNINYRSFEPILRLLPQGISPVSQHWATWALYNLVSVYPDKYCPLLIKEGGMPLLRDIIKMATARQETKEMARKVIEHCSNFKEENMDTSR
UniProt O43543: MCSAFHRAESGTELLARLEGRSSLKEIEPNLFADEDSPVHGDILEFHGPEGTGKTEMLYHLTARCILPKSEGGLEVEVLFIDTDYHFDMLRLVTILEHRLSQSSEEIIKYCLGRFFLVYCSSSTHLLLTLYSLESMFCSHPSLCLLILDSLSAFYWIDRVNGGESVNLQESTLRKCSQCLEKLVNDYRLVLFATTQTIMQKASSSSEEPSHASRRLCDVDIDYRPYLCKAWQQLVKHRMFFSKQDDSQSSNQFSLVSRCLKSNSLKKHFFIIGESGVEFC
UniProt O96006: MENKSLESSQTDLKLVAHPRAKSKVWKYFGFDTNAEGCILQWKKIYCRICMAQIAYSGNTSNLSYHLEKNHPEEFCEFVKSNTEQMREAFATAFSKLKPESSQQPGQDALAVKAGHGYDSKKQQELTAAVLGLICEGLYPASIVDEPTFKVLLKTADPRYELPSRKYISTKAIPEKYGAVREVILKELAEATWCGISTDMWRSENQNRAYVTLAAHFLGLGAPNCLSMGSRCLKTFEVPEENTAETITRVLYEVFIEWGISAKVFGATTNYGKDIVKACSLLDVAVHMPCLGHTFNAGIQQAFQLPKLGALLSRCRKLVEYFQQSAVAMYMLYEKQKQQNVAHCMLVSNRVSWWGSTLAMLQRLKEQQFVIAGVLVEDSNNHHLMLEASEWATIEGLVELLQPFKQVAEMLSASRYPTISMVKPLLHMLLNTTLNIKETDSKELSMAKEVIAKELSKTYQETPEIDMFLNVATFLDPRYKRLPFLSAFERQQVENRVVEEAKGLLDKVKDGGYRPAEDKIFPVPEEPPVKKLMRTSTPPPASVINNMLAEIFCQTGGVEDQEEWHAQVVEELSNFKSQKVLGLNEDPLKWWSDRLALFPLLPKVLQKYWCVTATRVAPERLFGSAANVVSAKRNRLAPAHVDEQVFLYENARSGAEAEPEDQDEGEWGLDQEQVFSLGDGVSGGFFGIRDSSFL

Legend:
Experiment in all cases: log2 fold change, soluble protein after heating vs DMSO (PISA); higher = thermal stabilisation; K562 lysate, 10 uM; active = over 0.2 and 3.5 SD of the protein, either way, in both replicates (recomputed)
nilotinib = compound: Cc1cn(-c2cc(NC(=O)c3ccc(C)c(Nc4nccc(-c5cccnc5)n4)c3)cc(C(F)(F)F)c2)cn1 [nilotinib]
In short: (§1)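 Dounce homogenisation of K562 pellets in PBS pH 7.4 with 1 mM MgCl2 produced a crude extract, used at 1 mg/mL protein. Exposure to 10 μM compound lasted 30 min, and aliquots were then heated for 3 min across 48°C-58°C, pooled and brought to 0.5% NP-40 at 4°C. The supernatant after 21,000xg for 90 min was quantified by TMTpro 16plex LC-MS/MS with channel sums equalised. Duplicate values are given as log-two fold change in thermal stability relative to solvent controls.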

[1] = compound: Cc1nc(Nc2n[nH]c3c2CN(C(=O)N[C@H](CN(C)C)c2ccccc2)C3(C)C)c2sccc2n1
In short: as §1

dasatinib = compound: Cc1nc(Nc2ncc(C(=O)Nc3c(C)cccc3Cl)s2)cc(N2CCN(CCO)CC2)n1 [dasatinib]
In short: as §1

[2] = compound: Cc1ncc(-c2ccnc(Nc3ccc(S(C)(=O)=O)cc3)n2)n1C(C)C
In short: as §1

[3] = compound: Cn1cc(-c2ccc3c(c2)CCN3C(=O)Cc2cccc(C(F)(F)F)c2)c2c(N)ncnc21
In short: as §1

quisinostat = compound: Cn1cc(CNCC2CCN(c3ncc(C(=O)NO)cn3)CC2)c2ccccc21 [quisinostat]
In short: as §1

tipifarnib = compound: Cn1cncc1[C@@](N)(c1ccc(Cl)cc1)c1ccc2c(c1)c(-c1cccc(Cl)c1)cc(=O)n2C [tipifarnib]
In short: as §1

[4] = compound: NC(=O)Nc1cc(-c2cccc(F)c2)sc1C(=O)N[C@H]1CCCNC1
In short: as §1

[5] = compound: NC(=O)c1cnc(N[C@@H]2CCCC[C@@H]2N)nc1Nc1cccc(-n2nccn2)c1
In short: as §1

[6] = compound: NC1(c2ccc(-c3nc4ccn5c(=O)[nH]nc5c4cc3-c3ccccc3)cc2)CCC1
In short: as §1

[7] = compound: NCC(=O)Nc1ccc(-n2nc(C(F)(F)F)cc2-c2ccc3c(ccc4ccccc43)c2)cc1
In short: as §1

vorinostat = compound: O=C(CCCCCCC(=O)Nc1ccccc1)NO [vorinostat]
In short: as §1

silmitasertib = compound: O=C(O)c1ccc2c(c1)nc(Nc1cccc(Cl)c1)c1ccncc12 [silmitasertib]
In short: as §1

[8] = compound: O=C1NC(=O)C(c2cnc3ccccn23)=C1c1cn2c3c(cc(F)cc13)CN(C(=O)N1CCCCC1)CC2
In short: as §1

entospletinib = compound: c1cn2cc(-c3ccc4cn[nH]c4c3)nc(Nc3ccc(N4CCOCC4)cc3)c2n1 [entospletinib]
In short: as §1

Measured: log2 fold change

XRN1 (UniProt Q8IZH2)
inactive: nilotinib 0.05 | [1] -0.001 | dasatinib -0.112 | [2] 0.074 | [3] 0.043 | quisinostat -0.046 | tipifarnib -0.061 | [4] 0.078 | [5] -0.069 | [6] -0.009 | [7] 0.021 | vorinostat -0.04 | silmitasertib -0.028 | [8] 0.043 | entospletinib 0.043

YIPF1 (UniProt Q9Y548)
inactive: nilotinib 0.016 | [1] -0.026 | dasatinib -0.001 | [2] 0 | [3] 0.056 | quisinostat -0.021 | tipifarnib -0.006 | [4] 0.061 | [5] -0.015 | [8] 0.081

ZBTB10 (UniProt Q96DT7)
inactive: dasatinib 0.013 | [3] -0.017 | quisinostat -0.066 | [4] 0.034 | [5] 0.026 | [6] 0.005 | [7] -0.086 | vorinostat 0.027 | silmitasertib -0.014 | [8] 0.008 | entospletinib 0.012

YIF1A (UniProt O95070)
inactive: dasatinib 0.067 | [3] -0.045 | quisinostat -0.043 | [4] 0.086 | [5] 0.037 | [6] 0.014 | [7] 0.023 | vorinostat 0.133 | silmitasertib 0.007 | [8] -0.031 | entospletinib 0.024

ZDHHC4 (UniProt Q9NPG8)
inactive: nilotinib -0.052 | [1] 0.144 | dasatinib 0.083 | [2] -0.032 | [3] 0.016 | quisinostat -0.042 | tipifarnib 0.097 | [4] 0.042 | [5] 0.015 | [6] 0.122 | vorinostat -0.168 | silmitasertib -0.18 | [8] 0.084

ZCCHC7 (UniProt Q8N3Z6)
inactive: nilotinib -0.031 | [1] -0.108 | dasatinib -0.042 | [2] 0.03 | [3] 0.028 | quisinostat 0.013 | tipifarnib -0.042 | [4] -0.051 | [8] -0.118

ZCRB1 (UniProt Q8TBF4)
inactive: nilotinib -0.139 | [1] -0.061 | dasatinib 0.052 | [2] 0.127 | [3] 0.004 | quisinostat -0.024 | tipifarnib 0.185 | [4] 0.05 | [5] 0.01 | [6] -0.065 | vorinostat 0.193 | silmitasertib 0.063 | [8] -0.002

ZC3H7A (UniProt Q8IWR0)
inactive: nilotinib -0.019 | [1] 0.054 | dasatinib -0.028 | [2] -0.023 | [3] 0.078 | quisinostat -0.059 | tipifarnib -0.032 | [4] 0.075 | [6] -0.009 | [7] 0.009 | vorinostat -0.164 | silmitasertib 0.03 | [8] -0.043 | entospletinib 0.031

ZDHHC17 (UniProt Q8IUH5)
inactive: nilotinib -0.164 | [1] 0.039 | dasatinib -0.096 | [2] -0.115 | [3] -0.028 | quisinostat 0.045 | tipifarnib 0.118 | [4] -0.118 | [5] -0.047 | [7] 0.065 | [8] -0.067 | entospletinib 0.009

ZBTB2 (UniProt Q8N680)
inactive: nilotinib 0.02 | [1] 0.011 | dasatinib 0.062 | [2] -0.001 | [3] -0.027 | quisinostat 0.078 | tipifarnib -0.012 | [4] -0.078 | [6] 0 | [7] 0.024 | vorinostat -0.033 | silmitasertib -0.008 | [8] 0.054 | entospletinib 0.041

YTHDC1 (UniProt Q96MU7)
inactive: nilotinib -0.134 | [1] 0.207 | dasatinib 0.122 | [2] 0.077 | [3] 0.26 | quisinostat 0.038 | tipifarnib 0.021 | [4] 0.006 | [5] -0.071 | [7] -0.349 | [8] 0.041 | entospletinib 0.156

ZFHX4 isoform 5 (UniProt Q86UP3)
inactive: nilotinib 0.035 | [1] 0.048 | [2] 0.083 | quisinostat 0.081 | tipifarnib -0.1 | [4] 0.004 | [5] 0.375 | [6] 0.115 | vorinostat -0.493 | silmitasertib 0 | [8] 0.015

ZBTB39 (UniProt O15060)
inactive: dasatinib -0.004 | [3] 0.064

Reprinted from the listing (three entries):
ZDHHC17 (UniProt Q8IUH5)
inactive: nilotinib -0.164 | [1] 0.039 | dasatinib -0.096 | [2] -0.115 | [3] -0.028 | quisinostat 0.045 | tipifarnib 0.118 | [4] -0.118 | [5] -0.047 | [7] 0.065 | [8] -0.067 | entospletinib 0.009

ZBTB2 (UniProt Q8N680)
inactive: nilotinib 0.02 | [1] 0.011 | dasatinib 0.062 | [2] -0.001 | [3] -0.027 | quisinostat 0.078 | tipifarnib -0.012 | [4] -0.078 | [6] 0 | [7] 0.024 | vorinostat -0.033 | silmitasertib -0.008 | [8] 0.054 | entospletinib 0.041

YTHDC1 (UniProt Q96MU7)
inactive: nilotinib -0.134 | [1] 0.207 | dasatinib 0.122 | [2] 0.077 | [3] 0.26 | quisinostat 0.038 | tipifarnib 0.021 | [4] 0.006 | [5] -0.071 | [7] -0.349 | [8] 0.041 | entospletinib 0.156

Additional entries.

ZCCHC4 (UniProt Q9H5U6)
inactive: nilotinib -0.024 | [1] -0.014 | dasatinib 0.115 | [2] -0.072 | [3] -0.091 | tipifarnib 0.064 | [7] -0.234 | entospletinib -0.175

ZG16B (UniProt Q96DA0)
inactive: nilotinib -0.033 | [1] -0.211 | [2] -0.038 | quisinostat -0.02 | tipifarnib -0.055 | [4] 0.124 | [5] -0.144 | [6] 1.73 | vorinostat 0.177 | silmitasertib -0.213 | [8] 0.411 | entospletinib -0.129

ZER1 (UniProt Q7Z7L7)
inactive: nilotinib 0.114 | [1] -0.027 | dasatinib -0.133 | [2] 0.034 | [3] 0.004 | quisinostat -0.166 | tipifarnib -0.023 | [4] 0.244 | [5] -0.039 | [6] -0.029 | [7] 0.165 | vorinostat -0.018 | silmitasertib -0.076 | [8] -0.068 | entospletinib -0.008

XRCC5 (UniProt C9JZ81)
inactive: nilotinib 0 | [1] 0.005 | [2] -0.062 | tipifarnib 0.189 | [5] 0.016

XRCC2 (UniProt O43543)
inactive: nilotinib 0.174 | [1] -0.213 | dasatinib -0.027 | [2] -0.148 | [3] -0.129 | quisinostat -0.058 | tipifarnib 0.033 | [4] 0.073 | [8] 0.025

ZBED1 (UniProt O96006)
inactive: nilotinib -0.021 | [1] -0.028 | dasatinib -0.047 | [2] 0.021 | [3] 0.025 | quisinostat 0.026 | tipifarnib -0.017 | [4] 0.055 | [5] 0.049 | [6] 0.05 | [7] -0.042 | vorinostat -0.204 | silmitasertib 0.02 | [8] -0.028 | entospletinib -0.047
